In patent US20220039907A1, “Inhibiting Post-Biopsy Inflammation and Metastasis” (The Board of Regents of the University of Oklahoma, priority 2020, published 2022):
At least one structure is not confirmed: it was looked up by name or label, or the drawing left a doubt.

Test system: primary mouse MSCs
Assay: Biopsy-WF induced PGE2 release from primary mouse MSCs
Assay type: cell-based
Settings: primary mouse MSCs treated with biopsy-WF

Cc1ccc(-c2cc(C(F)(F)F)nn2-c2ccc(S(N)(=O)=O)cc2)cc1 [celecoxib]
biopsy-WF induced PGE2 release: equally abrogated
